The assay in a line: qHTS Assay for Lipid Storage Modulators in Drosophila S3 Cells.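 As to cell number change: cells counted by Cell Tracker Red CMTPX staining in the red channel.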 Conditions: BODIPY lipid droplet fluorescence, 18-24 h; for cell number change: measured here: cell count max response, cells fed with added oleic acid. Put shortly:
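Drosophila S3 cells loaded with oleic acid (400 uM, as added) and compounds at several concentrations; lipid droplets imaged by 488-nm laser-scanning cytometry, 500–530 nm intensity and object ratio to cell channel. Percent activity normalized to 20 uM Triacsin C.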

The mark [1] stands for this setting: measured here: lipid fluorescence (Fed channel) AC50, cells fed with added oleic acid.
[2] abbreviates: measured here: cell number channel AC50, cells fed with added oleic acid.

This is one part of the list. Shown are side measurements of this screen, not its main read-out; they come without a call. Most of these compounds were active or inconclusive in the main read-out, so they are no random draw. Potencies come from curve fits of mixed quality, noted in brackets.

For orientation: AC50 means the midpoint of the concentration-response curve, whichever way the signal moves. Read a low AC50 as activity at low concentration. For `Cc1ccc(C(=O)N2CCCCC2)cc1NC1=C(Cl)C(=O)N(Cc2ccccc2)C1=O`, the cell number change is -4.82%. In addition, under setting [1], the concentration at half-maximal activity (AC50) was 23.1 µM [falling, single point].

As for `Cc1ccccc1C(=O)NC1CCN(Cc2nnnn2Cc2ccccc2)CC1`, the AC50 under setting [2] is 0.13 µM [rising, full curve, poor fit].

Regarding `O=C(NCCSCc1ccccc1)c1ccccc1`, the cell number change was -22.5%. The AC50 under setting [2] is 0.00461 µM [falling, full curve, poor fit]. For the same compound, under setting [1], the AC50 is 29.1 µM [rising, single point].

`CCC(C)[C@H]1CNCCN1CCCc1cc(OC)c(OC)c(OC)c1` (stereo partly drawn): the cell number change was -0.874%. Moreover, under setting [1], the concentration at half-maximal activity (AC50) is 5.17 µM [rising, full curve].

On to `CN(CC(=O)Nc1ccccc1C(=O)N1CCCC1)S(=O)(=O)c1ccc(Cl)cc1`, for which the AC50 under setting [2] is 3.26 µM [rising, single point].

With `O=C(c1ccc2ccccc2n1)N(CCO)Cc1ccccc1`, the cell number change was determined as 1.65%. Besides, the AC50 under setting [1] was 0.731 µM [falling, full curve, poor fit].

`O=C(CSc1nnnn1-c1ccccc1)N1CCc2ccccc21`: the cell number change stood at 3.72%. Further, the half-maximal activity concentration (AC50) under setting [1] is 1.16 µM [rising, partial curve].

Take `Cc1ccc(C(=O)Nc2ccc3c(c2)OCO3)cc1`: the AC50 was 0.517 µM [rising, single point] under setting [2] and 0.58 µM [rising, full curve] under setting [1].

Regarding `CCCn1c(N)c(C(=O)CSc2nnc(-c3ccco3)n2Cc2ccccc2)c(=O)[nH]c1=O`, the cell number change is -1.43%.

On to `CC(C)(C)C(=O)NC(=S)N1CCOCC1`, for which the cell number change was -4.72%. Besides, the concentration at half-maximal activity (AC50) under setting [1] was 23.1 µM [falling, single point].

`COc1cc(CNc2ccccc2SC)cc(OC)c1OC`: the cell number change turned out to be 0.948%.

Turning to `COc1cccc(NC(=O)c2cc(=O)c3ccccc3o2)c1`, the cell number change is -10.7%. Also, under setting [1], the AC50 was 2.59 µM [falling, single point].

With `O=C(C1=C(O)C(=O)N(CCc2ccccc2)C1c1cccnc1)c1ccco1` (stereo not drawn), the cell number change is -15.9%. Moreover, the half-maximal activity concentration (AC50) under setting [1] is 1.3 µM [rising, full curve, poor fit].

As to `N#Cc1nc(Nc2cc(F)cc(F)c2)c2ncn(CC(F)F)c2n1`, the cell number change is -16%.

As for `O=C(O)C1CCCN1S(=O)(=O)c1ccc(Cl)c(Cl)c1` (stereo not drawn), the cell number change is -35%. Under setting [2], the AC50 was 1.46 µM [falling, full curve, poor fit]. For the same compound, the AC50 under setting [1] is 2.31 µM [falling, full curve].

Regarding `O=C(/C=C/c1ccc([N+](=O)[O-])cc1)NC1CC2CCC1C2` (stereo not drawn), the cell number change amounted to 17.9%. In addition, under setting [1], the AC50 was 29.1 µM [rising, single point].

With `Cc1cc(C)c(S(=O)(=O)c2ccccc2)c(OC(=O)c2ccc(Cl)cc2Cl)n1`, the cell number change was -14.2%.

For the compound `O=S(=O)(NC1CCCCC1N1CCN(c2ccc(F)cc2)CC1)c1ccc(Cl)cc1` (stereo not drawn), the cell number change was 23.5%. Further, the concentration at half-maximal activity (AC50) under setting [1] was 29.1 µM [rising, single point].

Turning to `COC(=O)c1ccccc1NC(=O)C1CCN(c2ncnc3c2nc2n3CCCCC2)CC1`, the cell number change was -16.2%. Under setting [1], the AC50 was 0.58 µM [rising, single point].

`Cc1cc(C)c(C(=O)Cn2nc(C)c([N+](=O)[O-])c2C)cc1C`: the cell number change was -0.366%. Besides, the AC50 under setting [1] is 6.51 µM [rising, partial curve, poor fit].

For the compound `COc1ccc(Br)c(C(=O)Nc2cccc(Cl)c2Cl)c1`, the AC50 under setting [1] was 0.13 µM [falling, full curve, poor fit].

With `O=C(CSc1nnnn1Cc1ccccc1)Nc1ccc2c(c1)OCCO2`, the cell number change was 2.11%.

As to `CC1CC(C)CN(S(=O)(=O)N2CCCC(C(=O)NCCc3ccccc3)C2)C1` (stereo not drawn), the cell number change was found to be 21.1%.

`COCCN(C(=O)c1cc(Cl)nc2ccccc12)c1c(N)n(Cc2ccccc2)c(=O)[nH]c1=O`: the cell number change is 4.89%. In addition, the AC50 under setting [2] is 0.0731 µM [rising, full curve, poor fit].

On to `CN(CC(=O)Nc1cc(Cl)cc(Cl)c1)Cc1cccs1`, for which the cell number change was found to be 24.4%. Besides, the AC50 under setting [2] was 0.517 µM [rising, full curve, poor fit].

`Cc1ccc(/C=N/NC(=O)C2CCN(Cc3ccc(F)cc3Cl)CC2)o1`: the concentration at half-maximal activity (AC50) under setting [2] was 3.66 µM [falling, partial curve, poor fit] and the AC50 under setting [1] is 0.411 µM [falling, full curve, poor fit].

For the compound `CCc1cc(C)cc(OCCOc2ccccc2/C=N/NC(C)=O)c1`, the cell number change is -22.3%.

In the case of `COCCNC(=O)C(c1ccccc1C)N(CCOC)C(=O)Cn1nnc2ccccc21` (stereo not drawn), the cell number change was 64%. Under setting [2], the AC50 is 29.1 µM [rising, single point]. For the same compound, under setting [1], the concentration at half-maximal activity (AC50) is 5.17 µM [rising, partial curve].

As for `O=C(CCN1C(=O)[C@H]2CC=CC[C@H]2C1=O)NCc1nc(-c2ccc(Cl)cc2)no1`, the cell number change came out at 2.99%. Besides, the AC50 under setting [1] is 0.164 µM [rising, full curve, poor fit].

For the compound `CC(CN1CCCCC1)OC(=O)c1ccc(Cl)cc1Cl` (stereo not drawn), the cell number change is -214%. Also, the AC50 under setting [2] is 23.1 µM [falling, partial curve]. Further, the AC50 under setting [1] is 23.1 µM [falling, partial curve].

As to `CCN(CC)CCOC(=O)c1ccc(NC(=O)CCCN2C(=O)/C(=C/c3cccs3)SC2=S)cc1`, the cell number change was -29.2%.

Take `CC(=O)Nc1ccc2nc(-c3cccs3)[nH]c2c1`: the cell number change came to 3.88%.

`COc1ccc(CC(=O)OCC(=O)NC(=O)NC2CCCC2)cc1`: the cell number change is -5.45%.

For the compound `Oc1ccc(N2CCN(c3nnnn3-c3ccccc3)CC2)cc1`, the cell number change is -13.7%. The concentration at half-maximal activity (AC50) under setting [2] is 0.82 µM [rising, full curve]. Moreover, the half-maximal activity concentration (AC50) under setting [1] is 0.58 µM [rising, partial curve, poor fit].

As for `Cc1cc(NC(=O)CSc2nc3ccccc3cc2C#N)no1`, the cell number change is 47.4%. For the same compound, under setting [2], the concentration at half-maximal activity (AC50) was 3.66 µM [rising, full curve, poor fit].

Regarding `O=C(Nc1nncs1)c1ccc(F)c(S(=O)(=O)N2CCCCC2)c1`, the cell number change is -10.5%. Also, the AC50 under setting [1] is 29.1 µM [falling, single point].

With `O=C(CSc1nnc(NC(=O)c2ccc(S(=O)(=O)N3CCOCC3)cc2)s1)Nc1ccccc1C(F)(F)F`, the cell number change was -4.18%. Further, the concentration at half-maximal activity (AC50) under setting [1] is 0.58 µM [rising, single point].

Take `C=CCN1C(=O)NC2(CCCCC2)C1=O`: the cell number change is -17.8%. Under setting [1], the AC50 was 9.2 µM [falling, partial curve].

Consider `O=C(O)c1ccc(N2CCN(Cc3ccc4c(c3)OCO4)CC2)c([N+](=O)[O-])c1`, for which the cell number change turned out to be 20.9%. In addition, the AC50 under setting [1] was 14.6 µM [rising, partial curve, poor fit].

In the case of `CCOc1ccc(NCCC(=O)c2ccc3c(c2)OCO3)cc1`, the cell number change is -11.2%.

With `CCOc1ccccc1OCCCC(=O)NNC(=O)c1nn(C)c(=O)c2ccccc12`, the cell number change was -28.4%. In addition, under setting [1], the half-maximal activity concentration (AC50) is 0.0517 µM [rising, full curve, poor fit].

The record behind these values is PubChem BioAssay AID2685 (National Center for Advancing Translational Sciences (NCATS), 2010).
